No constants are given. Whether binding was seen depends on the method and setting. Binding seen in cells or lysates may run through a third protein. These calls come from enrichment with a bait or labelling near it, and not all partners need be listed. Sequences can lack the tags named with a protein.
Target: T1, MBP-TTG1 (… TESTA GLABRA1) (Arabidopsis thaliana) (UniProt Q9XGN1)
T1 sequence: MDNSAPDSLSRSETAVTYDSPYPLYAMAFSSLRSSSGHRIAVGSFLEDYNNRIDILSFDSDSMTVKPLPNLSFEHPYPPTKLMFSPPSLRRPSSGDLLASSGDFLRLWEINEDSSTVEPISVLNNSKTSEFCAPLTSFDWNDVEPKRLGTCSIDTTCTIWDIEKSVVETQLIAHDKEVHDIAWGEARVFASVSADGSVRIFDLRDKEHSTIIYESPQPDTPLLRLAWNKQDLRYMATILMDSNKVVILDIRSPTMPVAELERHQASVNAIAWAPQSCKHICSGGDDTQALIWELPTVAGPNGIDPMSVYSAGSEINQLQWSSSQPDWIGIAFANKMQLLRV
Assay: affinity purification with mass spectrometry; recombinant MBP-TTG1 immobilized onto amylose resin, incubated with total protein extract of Col-0 siliques 4 days after pollination for 3 h at 4 °C; eluate analysed by LC-MS/MS; only the target purified

binding: binds
B1: SHAGGY-like kinases11 (SK11) (protein, UniProt P43288 1-405)
chain: MASVGIAPNPGARDSTGVDKLPEEMNDMKIRDDKEMEATVVDGNGTETGHIIVTTIGGRNGQPKQTISYMAERVVGHGSFGVVFQAKCLETGETVAIKKVLQDRRYKNRELQTMRLLDHPNVVSLKHCFFSTTEKDELYLNLVLEYVPETVHRVIKHYNKLNQRMPLIYVKLYTYQIFRALSYIHRCIGVCHRDIKPQNLLVNPHTHQVKLCDFGSAKVLVKGEPNISYICSRYYRAPELIFGATEYTTAIDVWSAGCVLAELLLGQPLFPGESGVDQLVEIIKVLGTPTREEIKCMNPNYTEFKFPQIKAHPWHKIFHKRMPPEAVDLVSRLLQYSPNLRSAALDTLVHPFFDELRDPNARLPNGRFLPPLFNFKPHELKGVPLEMVAKLVPEHARKQCPWLGL

Reference: PMC5805785, “Site-specific phosphorylation of TRANSPARENT TESTA GLABRA1 mediates carbon partitioning in Arabidopsis seeds” (Nature Communications, 2018)
